Measured values: article PMC6925144, “A prospective compound screening contest identified broader inhibitors for Sirtuin 1” (Scientific Reports, 2019)
Over roughly 3,200 compounds, “TSA(without NAD+) / Primary screening (TSA) / delta Tm (K)” has its median near -0.07; the highest 2% begin near 0.37. This is one part of the list.

By UniProt entry, the sequences of proteins in these tests, tags left out. Residues count along the entry.
UniProt Q96EB6, 2-747 limits assumed: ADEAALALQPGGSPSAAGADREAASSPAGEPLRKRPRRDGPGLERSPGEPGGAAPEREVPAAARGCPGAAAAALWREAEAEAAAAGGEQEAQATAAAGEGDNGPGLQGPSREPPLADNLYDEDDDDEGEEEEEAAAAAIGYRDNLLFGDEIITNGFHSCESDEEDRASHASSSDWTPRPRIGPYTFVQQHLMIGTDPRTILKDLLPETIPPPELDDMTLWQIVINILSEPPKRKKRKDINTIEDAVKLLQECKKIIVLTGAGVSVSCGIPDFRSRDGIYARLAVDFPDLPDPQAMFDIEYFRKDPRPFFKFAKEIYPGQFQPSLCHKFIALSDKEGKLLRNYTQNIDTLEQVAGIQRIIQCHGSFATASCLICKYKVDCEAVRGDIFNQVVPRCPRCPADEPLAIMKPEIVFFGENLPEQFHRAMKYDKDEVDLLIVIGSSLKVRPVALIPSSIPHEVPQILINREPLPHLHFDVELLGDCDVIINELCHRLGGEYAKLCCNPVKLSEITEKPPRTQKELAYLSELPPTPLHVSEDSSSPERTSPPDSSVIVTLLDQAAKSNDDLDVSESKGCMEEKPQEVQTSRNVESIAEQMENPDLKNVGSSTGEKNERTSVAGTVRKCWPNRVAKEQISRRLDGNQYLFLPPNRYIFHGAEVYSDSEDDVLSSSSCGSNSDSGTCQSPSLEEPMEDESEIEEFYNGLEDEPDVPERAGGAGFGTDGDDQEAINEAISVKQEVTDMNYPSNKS

biological target: NAD-dependent deacetylase Sirtuin 1 (human, UniProt Q96EB6); assay: primary screen, delta tm; set-up: single well (n = 1); details: 10 µM
How it was run: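 Thermal shift of Sirtuin 1 measured without NAD+, compound at 10 µM (n = 1); value is ΔTm, with hits defined as ΔTm > 0.45 K or < −1.5 K. Hits retested at 5, 10, 20 µM (n = 4) and counterscreened on bovine carbonic anhydrase and ABL1 SH2 domain.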

SMILES | TSA(without NAD+) / Primary screening (TSA) / delta Tm (K)
NC(=O)Cn1cnc2c(cnn2-c2ccccc2)c1=O | -0.08
Cc1nnc(CN2CCN(CC(O)COCc3ccco3)CC2)n1C (stereo not drawn) | -0.04
CCOc1ccc(C2C(C(=O)/C=C/c3ccco3)=C(O)C(=O)N2CCCN2CCOCC2)cc1OC (stereo not drawn) | -0.17
NC(=O)c1ccc(N2CCCC2)c(NC(=O)c2cn(Cc3ccccc3)nn2)c1 | 0.12
COc1ccc2cc(C(=O)O)c(C)nc2c1 | -0.27
CN1c2ccccc2C(=O)NC1c1cccc(C(F)(F)F)c1 (stereo not drawn) | -0.12
O=C(NCc1ccc[nH]1)C(=O)Nc1ccc2c(c1)CCC2 | -0.18
O=C1/C(=C\c2cc(Br)cc(Br)c2O)CC/C1=C\c1cc(Br)cc(Br)c1O | 0.55
N=C1c2ccccc2CN1c1ccc(-c2ccc(N3Cc4ccccc4C3=N)cc2)cc1 | -0.33
COc1ccc(CCNC(=O)/C=C/c2ccc3ccccc3n2)cc1OC | -0.01
CCn1cnc2c(N3CC4CCCCCC43)ncnc21 (stereo not drawn) | -0.03
Cc1ccc(NC(=O)c2ccc(Cl)nc2Cl)cc1F | 0.12
CC(NC(=O)COC(=O)c1ccc2c(c1)S(=O)(=O)c1ccccc1C2=O)C12CC3CC(CC(C3)C1)C2 (stereo not drawn) | 0.17
NCc1nc2c(cnn2-c2ccccc2)c(=O)[nH]1 | -1.92
COC(=O)CCC(=O)NNC(=O)CCC(=O)Nc1ccc(C)c(C)c1 | -0.12
Cc1nn(C)c2ncc(S(=O)(=O)N(C)c3ccc4ccccc4c3)cc12 | 0.02
Cc1ccc(C(=O)C(OC(=O)c2c(C)noc2C)c2ccc(C)cc2)cc1 (stereo not drawn) | -0.22
NC(=O)c1ccc(NC(=O)c2ccccc2S(=O)(=O)N2CCCCC2)cc1 | 0.15
O=C(CSC1=N/C(=C\c2ccccc2)C(=O)N1c1ccc(F)cc1)c1c[nH]c2ccccc12 | -0.02
Cc1ccccc1C(=O)N1CCC(C(=O)Nc2ccc(N3CCN(Cc4ccccc4)CC3)cc2)CC1 | -0.24
NC(=O)C1CCCN(c2ncnc3ccsc23)C1 (stereo not drawn) | -0.15
O=C(NCc1cccc(OCc2ccccn2)c1)Nc1ccc(C(=O)N2CCCCCC2)cc1 | 0.06
O=C(CN1CCN(Cc2ccsc2)CC1)Nc1ccc(N2CCCC2=O)cc1 | -0.12
COc1ccc2cc(C(=O)N(C)CC(=O)O)c(C)nc2c1 | -0.18

SMILES | TSA(without NAD+) / Primary screening (TSA) / delta Tm (K)
CC1(c2ccc(C#N)cc2)NC(=O)N(CC(=O)Nc2ccc(C(N)=O)cc2)C1=O (stereo not drawn) | -0.04
COc1cccc(C(=O)C2=C(O)C(=O)N(CCCN3CCOCC3)C2c2cccs2)c1 (stereo not drawn) | 0.02
NC(=O)c1ccc(OCC(=O)NC(=O)NCc2cccs2)cc1 | 0.03
O=C(c1ccc2c(=O)[nH]c(S)nc2c1)N1CCN(C(=O)c2cnccn2)CC1 | -0.13
O=C1NC(=S)NC(=O)C1=Cc1ccc(N2CCOCC2)cc1 | -0.18
O=C(Nc1cnc2ccccc2c1)C(=O)N1CCCC1c1ccsc1 (stereo not drawn) | -0.12
NS(=O)(=O)c1ccc(CCNC(=O)COC(=O)C23CC4CC(C2)CC(c2ccccc2)(C4)C3)cc1 | -0.07
COc1ccc(N(C)S(=O)(=O)c2cccc(C(=O)Nc3ccc(Cl)cc3)c2)cc1 | 0.36
CCn1c(=O)c(C)nc2cc(C(=O)NCC(C(C)C)N(C)C)ccc21 (stereo not drawn) | 0.08
O=C(CN1C(=O)COc2ccccc21)Nc1cccc(S(=O)(=O)NCc2ccco2)c1 | 0.07
NC(=O)CN1CCOc2cc(Br)c(Cl)cc21 | -0.23
CN1C(=O)N(CC(=O)c2ccc3c(c2)CCCC3)C(=O)C12CCCCC2 | -0.18
CC(C)c1ccc(-c2nnc(NC(=O)/C=C/c3ccco3)s2)cc1 | -0.12
CCn1c(C(=O)Nc2ccc(CCO)cc2)cc2ccccc21 | -0.04
Cc1nc2cc(NC(=O)C3Cc4ccccc4O3)ccc2o1 (stereo not drawn) | 0.03
CC#CCN | -0.23
O=C(Nc1ccc(NC(=O)c2ccccc2-n2cccn2)cc1)NC1CC1 | -0.08
COc1ccccc1-c1c(C)oc2cc(O)ccc2c1=O | -0.13
NC(=O)c1ccc(N2CCCC2)c(NC(=O)CCc2ccc3c(c2)OCO3)c1 | -0.11
Cc1ccc(S(=O)(=O)N2CCCCC2)cc1NC(=O)COC(=O)c1ccccc1SCC(=O)N1CCCC1 | 0.12
O=C(c1ccc(-n2cnnn2)cc1Cl)N1CCCN2CCCC2C1 (stereo not drawn) | -0.07
Cc1nc(-c2cccnc2)nc(NCCOc2cccnc2)c1C | 0.03
O=C(CN1C(=O)NC2(CCCC2)C1=O)NCC12CC3CC(CC(C3)C1)C2 | -0.14
c1ccc(-c2cc(-c3nc4c5ccccc5ncn4n3)[nH]n2)cc1 | -0.21

SMILES | TSA(without NAD+) / Primary screening (TSA) / delta Tm (K)
Cc1c(NN=C2C(=O)NC(=S)NC2=O)c(=O)n(-c2ccccc2)n1C | -0.03
O=C(O)c1cnc2c(c1)c(=O)[nH]c(=O)n2Cc1ccccc1 | -0.13
OC1CCN(CCOCCOc2ccccc2)CC1 | -0.24
CC(C(=O)Nc1ncccn1)N1CCC(c2c[nH]c3ccc(C(N)=O)cc23)CC1 (stereo not drawn) | 0.03
NC(=O)c1ccc(=O)n(Cc2ccn(-c3ccccc3)n2)n1 | -0.12
COc1ccc(C(=O)NCCc2ccc(-c3csc(C)n3)s2)cc1 | 0.07
C[C@@H](O)CCN | -0.14
CC(NC(=O)COC(=O)CNC(=O)c1ccc(-c2ccccc2)cc1)C12CC3CC(CC(C3)C1)C2 (stereo not drawn) | 0.06
COC(=O)c1ncccc1N1CCN(C(=O)CN2CCOCC2)CC1 | -0.12
COc1ccc2nc(C)c(C(=O)NC34CC5CC(CC(C5)C3)C4)cc2c1 | -0.12
COc1ccc(C(CNC(=O)CCc2nc3ccccc3[nH]2)N(C)C)cc1 (stereo not drawn) | -0.11
COc1ccc(N(C)S(=O)(=O)c2cccc(C(=O)OCc3ccc(C)cc3)c2)cc1 | -0.07
Cc1ccc(-n2c3nc4ccccc4nc3c3c(=N)oc(C)nc32)cc1 | 0.06
CC(C)CC1CCCC(CC(C)C)N1 (stereo not drawn) | -0.05
COc1cccc(/C=C2/Oc3cc(O)ccc3C2=O)c1OC(F)F | -0.13
NC(=O)c1cc(N2CCN(CC(=O)N3CCCCCC3)CC2)nc2ccccc12 | 0.02
O=C(Nc1cccc2cccnc12)c1ccc2c(c1)C(=O)c1ccccc1-2 | 0.35
CC(=O)NC12CC3CC(C1)CC(C(=O)OC(C)C(=O)Nc1ccccc1-c1ccccc1)(C3)C2 (stereo not drawn) | -0.02
Cc1[nH]c2ccc(C(=O)N3CCC(C(N)=O)CC3)cc2c1C | -0.08
COCCCCCN | 0.05
N#CCCC(C#N)CN1CCC(CCc2ccc(O)cc2)CC1 (stereo not drawn) | -0.31
CC1(C)CN(CC(F)(F)F)CCN1CC(=O)NCc1ccccc1 | -0.24
CC(O)CC(C)(C)CNC(=O)Nc1ccc(F)cc1 (stereo not drawn) | -0.13
Cc1ccc2[nH]c3c(c2c1)CN(c1ncccn1)CC3 | -0.02

SMILES | TSA(without NAD+) / Primary screening (TSA) / delta Tm (K)
CCc1cccc2c(C(=O)COC(=O)CN3CCCCCC3=O)c[nH]c12 | 0.02
Cc1ccc(-c2nnc(SCC(=O)NC(=O)NC(C)C)n2N)cc1 | -0.21
COC(=O)C1(CNc2ncnc3c(C)csc23)CC1 | -0.03
COC(=O)CN | 0.06
CCN(CC)c1ccc(C(=O)C(C#N)C(=O)N2CCCC2)cn1 (stereo not drawn) | 0.15
CCOC(=O)c1sc2ncnc(N3CCCC(C(N)=O)C3)c2c1C (stereo not drawn) | -0.28
Cc1ccc(-c2csc3ncn(CCC(=O)Nc4cccc(-c5nc(C)no5)c4)c(=O)c23)cc1 | -0.31
NC(=O)C1CCN(c2ncnc3ccccc23)CC1 | -0.12
Cc1nn(C)cc1CCN | -0.15
O=C(O)c1cc2c(ccc3cc(Br)ccc32)oc1=O | 0.29
COC(=O)c1[nH]c(C)c(C(=O)/C=C(/O)C(=O)NCCN2CCOCC2)c1C | -0.15
CC(NC(=O)COC(=O)c1cccnc1SCC(=O)Nc1ccc2c(c1)OCO2)C12CC3CC(CC(C3)C1)C2 (stereo not drawn) | 0.07
O=C(CSc1ccccc1C(=O)OCc1cc([N+](=O)[O-])cc2c1OCOC2)NC12CC3CC(CC(C3)C1)C2 | 0.02
NC(=O)c1csc(C(=O)N2CCC(COCc3ccccc3)C2)c1 (stereo not drawn) | -0.08
COc1cccc(CN(C(=O)CN2C(=O)c3ccccc3S2(=O)=O)C23CC4CC(CC(C4)C2)C3)c1 | -0.03
NC(=O)Cc1ccc(NC(=O)c2cc(Br)ccc2F)cc1 | 0.09
O=C(Nc1cccc(S(=O)(=O)N2CCOCC2)c1)c1cc(-c2ccccc2)nn1-c1ccccc1 | 0.09
CC(Nc1cccc(C(N)=O)c1)C1CN(Cc2ccccc2)CCO1 (stereo not drawn) | -0.18
COC(=O)c1ccc2[nH]c3c(c2c1)CN(C(=O)C(C)C)CC3 | -0.14
COc1ccc(-c2cc(NC(=O)CCNC(=O)c3ccc(Cl)cc3)ccc2OC(F)F)cc1 | 0.12
CC(C)c1nnc(S)[nH]1 | -0.03

Some of these compounds in order of SMILES length, high to low:
SMILES | TSA(without NAD+) / Primary screening (TSA) / delta Tm (K)
COc1cccc(CN(C(=O)CN2C(=O)c3ccccc3S2(=O)=O)C23CC4CC(CC(C4)C2)C3)c1 | -0.03
NC(=O)c1csc(C(=O)N2CCC(COCc3ccccc3)C2)c1 (stereo not drawn) | -0.08
NC(=O)Cc1ccc(NC(=O)c2cc(Br)ccc2F)cc1 | 0.09
COC(=O)C1(CNc2ncnc3c(C)csc23)CC1 | -0.03
CC(C)c1nnc(S)[nH]1 | -0.03

As a short view, some entries already given.
SMILES | TSA(without NAD+) / Primary screening (TSA) / delta Tm (K)
COc1ccc2cc(C(=O)N(C)CC(=O)O)c(C)nc2c1 | -0.18
CC1(c2ccc(C#N)cc2)NC(=O)N(CC(=O)Nc2ccc(C(N)=O)cc2)C1=O (stereo not drawn) | -0.04
